The values below come from PMC11818346.

By UniProt entry, the sequences of proteins in these tests, tags left out. Residues count along the entry.
UniProt P22366: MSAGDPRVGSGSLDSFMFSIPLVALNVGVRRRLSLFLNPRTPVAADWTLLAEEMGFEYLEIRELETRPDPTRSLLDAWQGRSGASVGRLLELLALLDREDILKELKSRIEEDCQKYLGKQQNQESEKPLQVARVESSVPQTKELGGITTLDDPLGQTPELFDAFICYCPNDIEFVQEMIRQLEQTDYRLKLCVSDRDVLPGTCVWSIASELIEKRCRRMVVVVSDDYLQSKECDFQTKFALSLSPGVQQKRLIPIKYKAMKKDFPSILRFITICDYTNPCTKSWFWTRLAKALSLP
UniProt Q9QUK6, residues 660-835: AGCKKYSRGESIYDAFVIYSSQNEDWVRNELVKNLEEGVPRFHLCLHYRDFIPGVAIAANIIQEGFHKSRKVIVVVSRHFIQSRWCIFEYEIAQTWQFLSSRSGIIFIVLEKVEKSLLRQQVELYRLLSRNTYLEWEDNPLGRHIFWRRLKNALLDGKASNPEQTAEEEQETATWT

These are yes or no findings as the source states them, for the method shown. Binding seen in cells or lysates may run through a third protein. Some entries that bind do so weakly or less than the wild type. Tags and fused reporters may be left off the sequences shown.

In test [1] the target is myeloid differentiation primary response gene 88 (MyD88), endogenous in mouse BMDMs (mouse (endogenous in BMDMs)) (UniProt P22366). Briefly: co-IP; BMDMs with or without LPS (1 ug/mL, 15 min), lysed in RIPA buffer, precleared; immunoprecipitated with anti-MyD88 goat pAb; blotted with anti-P2X7, anti-MyD88 and anti-HA tag antibodies; wild-type, P2X7-CT2 Tg and anti-P2X7-scFv Tg BMDMs compared.

For test [2], the target named is TLR4-CT-Myc (mouse TLR4 C-terminal intracellular domain, amino acids 660-835) (mouse) (UniProt Q9QUK6). Briefly: co-IP; lysates (RIPA) of separately transfected DO-11.10 cells mixed, 4 °C overnight; complexes taken with a Myc Tagged Protein Purification Kit; blotted with anti-HA and anti-Myc tag antibodies.
For test [3] the target is unchanged. Briefly: co-IP; as a3, lysates of HA-P2X7-CT2 and TLR4-CT-Myc cells mixed with or without lysate of anti-P2X7-scFv-His cells; anti-Myc precipitation; blotted with anti-HA, anti-Myc or anti-His tag antibody.

B1: P2X7 (endogenous, mouse bone marrow-derived macrophages) (receptor, UniProt Q9Z1M0 1-595)
chain: MPACCSWNDVLQYETNKVTRIQSTNYGTVKWVLHMIVFSYISFALVSDKLYQRKEPVISSVHTKVKGIAEVTENVTEGGVTKLGHSIFDTADYTFPLQGNSFFVMTNYVKSEGQVQTLCPEYPRRGAQCSSDRRCKKGWMDPQSKGIQTGRCVPYDKTRKTCEVSAWCPTEEEKEAPRPALLRSAENFTVLIKNNIHFPGHNYTTRNILPTMNGSCTFHKTWDPQCSIFRLGDIFQEAGENFTEVAVQGGIMGIEIYWDCNLDSWSHHCRPRYSFRRLDDKNTDESFVPGYNFRYAKYYKENNVEKRTLIKAFGIRFDILVFGTGGKFDIIQLVVYIGSTLSYFGLATVCIDLLINTYSSAFCRSGVYPYCKCCEPCTVNEYYYRKKCESIMEPKPTLKYVSFVDEPHIRMVDQQLLGKSLQVVKGQEVPRPQMDFSDLSRLSLSLHDSPLTPGQSEEIQLLHEEVAPKSGDSPSWCQCGNCLPSRLPEQRRALEELCCRRKPGRCITTSKLFHKLVLSRDTLQLLLLYQDPLLVLGEEATNSRLRHRAYRCYATWRFGSQDMADFAILPSCCRWRIRKEFPKTEGQYSGFKYPY
B1: in test [1], the binding result is listed as “binds”.

B2: HA-P2X7-CT2 (mouse P2X7 C-terminal domain, amino acids 392-595), overexpressed in P2X7-CT2 Tg BMDMs (domain or fragment, UniProt Q9Z1M0 392-595)
chain: MEPKPTLKYVSFVDEPHIRMVDQQLLGKSLQVVKGQEVPRPQMDFSDLSRLSLSLHDSPLTPGQSEEIQLLHEEVAPKSGDSPSWCQCGNCLPSRLPEQRRALEELCCRRKPGRCITTSKLFHKLVLSRDTLQLLLLYQDPLLVLGEEATNSRLRHRAYRCYATWRFGSQDMADFAILPSCCRWRIRKEFPKTEGQYSGFKYPY
Consider B2, for which the binding result in test [1] is “binds”.

B3: HA-P2X7-CT2 (mouse P2X7 C-terminal domain, amino acids 392-595), from transfected DO-11.10 cells (domain or fragment, UniProt Q9Z1M0 392-595)
chain: MEPKPTLKYVSFVDEPHIRMVDQQLLGKSLQVVKGQEVPRPQMDFSDLSRLSLSLHDSPLTPGQSEEIQLLHEEVAPKSGDSPSWCQCGNCLPSRLPEQRRALEELCCRRKPGRCITTSKLFHKLVLSRDTLQLLLLYQDPLLVLGEEATNSRLRHRAYRCYATWRFGSQDMADFAILPSCCRWRIRKEFPKTEGQYSGFKYPY
Turning to B3, the binding entry in test [2] and in test [3] was “binds” in each case.
